{"sequences": {"note": "Sequences of proteins named here, by UniProt entry; tags and fusion partners are left off. Residues count along the entry.", "UniProt P28347, 209-426": "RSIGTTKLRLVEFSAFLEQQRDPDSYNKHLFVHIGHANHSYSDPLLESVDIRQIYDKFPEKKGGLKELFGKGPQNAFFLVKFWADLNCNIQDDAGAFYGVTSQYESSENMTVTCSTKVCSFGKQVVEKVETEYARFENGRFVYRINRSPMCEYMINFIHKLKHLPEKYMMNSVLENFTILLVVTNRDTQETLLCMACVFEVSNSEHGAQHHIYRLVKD"}, "source": "patent US11548923B2", "about": "“Peptide compositions and methods of use thereof for disrupting TEAD interactions” (Fred Hutchinson Cancer Center, priority 2017, dated 2023)", "target": "T1, biotinylated TEAD (Homo sapiens, UniProt P28347)", "T1 construct": "soluble TEAD (194-411) was produced with two C-terminal tags; GST; made in house; host or cells: Hi5 insect cells (baculovirus, BacMagic, pIEX-BAC3)", "experiment": "Surface plasmon resonance (SPR) binding of soluble peptides to captured biotinylated TEAD", "settings": "read-out: dissociation constant (KD), biotinylated TEAD immobilized on an SPR chip", "note": "At least one compound was matched to its structure with a doubt left. Where a SMILES comes first, the peptide text is derived from it. Bridges are numbered along the chain shown (N, C = ends).", "data": [{"compound": "CC[C@H](C)[C@@H]1NC(=O)[C@H](C)NC(=O)[C@H](CO)NC(=O)[C@@H]2CSSC[C@@H]3NC(=O)[C@H](CCC(N)=O)NC(=O)[C@H](CC(N)=O)NC(=O)[C@H](CC(N)=O)NC(=O)[C@H](CCC(N)=O)NC(=O)[C@H](CSSC[C@H](NC(=O)[C@H](CCC(N)=O)NC(=O)[C@H](CC(N)=O)NC(=O)[C@H](CC(=O)O)NC(=O)[C@H](Cc4ccc(O)cc4)NC(=O)[C@H](CC(C)C)NC(=O)CNC(=O)[C@H](Cc4ccccc4)NC(=O)[C@H](CO)NC(=O)CN)C(=O)N[C@@H](C)C(=O)N[C@@H]([C@@H](C)O)C(=O)N[C@@H](CO)C(=O)N[C@@H](CC(=O)O)C(=O)N[C@@H](C)C(=O)N2)NC(=O)[C@H](CCCCN)NC(=O)CNC(=O)[C@H](CCC(N)=O)NC(=O)CNC(=O)[C@H](CO)NC(=O)CNC(=O)[C@H]([C@@H](C)O)NC(=O)[C@H](Cc2c[nH]c4ccccc24)NC(=O)[C@H](Cc2ccc(O)cc2)NC(=O)[C@H](CCCCN)NC(=O)[C@H](CSSC[C@@H](C(=O)N[C@@H](Cc2ccc(O)cc2)C(=O)O)NC(=O)[C@H](CCCNC(=N)N)NC3=O)NC1=O", "note": "[SEQ ID NO: 3] (H-GSFGLYDNQCATSDACSAICKYWTGSGQGKCQNNQCRCY-OH; disulfide 10-31, 16-36, 20-38)", "values": [{"measurement": "Kd", "value": 12, "unit": "µM"}]}]}
